# System: NAc brain region
# Conditions: 46° C. stimulus
compound,measurement,setting,value
CN1CC[C@]23c4c5ccc(O)c4O[C@H]2[C@@H](O)C=C[C@H]3[C@H]1C5 [morphine],Magnitude of NAc signal decrease to thermal pulse,"morphine 4 mg/70 kg i.v., heat plus saline 2%",~1%
same,Effect on negatively valenced NAc response to noxious heat,morphine vs saline curve,attenuates the response

# From US6907280B2, “Method and apparatus for objectively measuring pain, pain treatment and other related techniques” (The General Hospital Corporation, priority 1999, dated 2005)
